# Screening data, single-dose tests

Protein sequences, listed by entry. Tags and fused reporters are not part of them. Residues count along the entry.
UniProt A4I591, 1-473: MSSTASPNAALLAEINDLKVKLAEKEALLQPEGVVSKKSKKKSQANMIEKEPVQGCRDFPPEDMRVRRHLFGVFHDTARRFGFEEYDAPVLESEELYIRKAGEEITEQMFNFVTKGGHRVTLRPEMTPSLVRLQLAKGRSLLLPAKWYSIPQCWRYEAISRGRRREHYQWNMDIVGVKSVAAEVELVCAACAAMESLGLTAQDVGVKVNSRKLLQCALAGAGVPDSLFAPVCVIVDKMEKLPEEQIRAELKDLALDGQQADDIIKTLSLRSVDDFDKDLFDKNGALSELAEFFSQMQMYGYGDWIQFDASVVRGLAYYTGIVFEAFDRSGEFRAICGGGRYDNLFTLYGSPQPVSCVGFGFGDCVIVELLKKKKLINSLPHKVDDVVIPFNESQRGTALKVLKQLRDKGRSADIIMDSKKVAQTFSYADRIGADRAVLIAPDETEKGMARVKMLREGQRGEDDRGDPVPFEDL

Source: ChEMBL document CHEMBL3988442, “University of Dundee, Small-Polar-MMV Screening Library” (2021).

Results are given as percent effect.
The controls that fix the scale are not given in the record; negative values are as filed.
The compounds are a random part of those screened.

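Enzyme assay of histidyl-tRNA synthetase; the read-out is not stated. Target: Histidine-tRNA ligase, Leishmania infantum (UniProt A4I591). Compounds at 30 µM. Direction is inferred from retests: higher values go with stronger inhibition. The assay is labelled LdHisRS but filed under L. infantum. Size under these conditions: about 69,000 compounds, about 410 of them at 50% or above in at least one test.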

compound,Percent Effect
CCNC(=O)c1cc(OC)c(OC)cc1N(C)S(C)(=O)=O,-0.8333
Cc1ccnn1CCNC(=O)c1cnc(N(C)C)nc1,13.04
CNC(=O)c1cccnc1N1CCC(OCc2ccccc2)CC1,14.63
Cc1cccc(N2CCN(CCC(=O)NCc3cccnc3)CC2)c1,15.2
O=C(NCCCO)c1cnc(-c2ccccc2)nc1O,13.89
NC(=O)CCn1cc(CNCc2csc(N)n2)c2ccccc21,15.62
CC(Nc1cccc(COCc2ccco2)c1)C(=O)NC(N)=O (centres unmarked),2.174
CCc1nc2ccccc2c(=O)n1CC1(O)CCN(CC(=O)OC)CC1,-3.125
Oc1nc(N2CCCC2)nc2c1CCN(Cc1ccsc1)CC2,10.34
CC(=O)c1c(O)n(C)c2ccccc12,21.84
CN1C[C@@H](N)C[C@H]1C(=O)N1CCC(Cc2ccc(F)cc2)CC1,20.41
CC1(C)CN(S(=O)(=O)N2CCOCC2)CC1c1ccccc1 (centres unmarked),4.167
c1ccc(CNc2ncc(CN3CCCN4CCC[C@H]4C3)cn2)cc1,45.16
O=C(c1cscn1)N1CCc2ncc(CN3CCOCC3)n2CC1,0
CC(C(=O)N1CCCN(Cc2cnn(C(C)C)c2)CC1)n1ccnc1 (centres unmarked),10.71
Cc1cc(O)c(OCC(=O)/N=c2\[nH]c(C)cs2)cn1,20
Cc1cc(C)c2c(N3CCC(C(=O)N4CCCC4)CC3)ncnc2n1,18.37
Cc1cccnc1N1CCN(Cc2cc(O)c3cccc(F)c3n2)CC1,17.78
COc1cccc(C2SCC(=O)Nc3ccsc32)c1OC (centres unmarked),11.67
Cc1ccc(CN2CCC3(CCN(S(=O)(=O)c4ccccc4)C3)C2)o1 (centres unmarked),17.48
Cc1c(CNCC(C)Oc2cccnc2)c2ccccc2n1CC(N)=O (centres unmarked),3.509
O=C(c1ccoc1)N1CCO[C@]2(CCC[C@@H]2COCc2cccnc2)C1,22.86
COc1ccccc1OCc1cc(C(=O)N2CCOCC2CO)n[nH]1 (centres unmarked),21.21
CC(=O)Nc1ccc(Oc2cccc(CN3CCCC3)c2)cc1,18.67
CCNc1cc2c(nn1)CCN(C(=O)c1ccnc(N(C)C)c1)C2,34.4
CC(C)n1nc(CNc2ncccn2)c2c1CN(S(C)(=O)=O)CC2,17.17
O=C(C1CC1)N(CCc1ccccc1)C1CCOC1 (centres unmarked),9.244
Cc1cnn(C2CCCN(C(=O)c3ccc(C(N)=O)cn3)C2)c1 (centres unmarked),13.91
CNC(=O)CN1CCOCC2(CN(CCC(F)(F)F)CCO2)C1 (centres unmarked),20.51
CCCS(=O)(=O)c1ccc(N2CCN(c3ccccn3)CC2)nn1,12.17
Cc1ccc(OCCn2cnc3oc(C)c(C(=O)O)c3c2=O)cc1,12.39
COCCNC(=O)NCc1cccc(-n2ccnc2)c1,18.42
COc1c(C2CCCN2C(=O)c2c[nH]c3ncccc23)c(C)nn1C (centres unmarked),6.25
CC(=O)c1ccc(-n2c(C)cn(CCS(C)(=O)=O)c2=O)cc1,21.05
Fc1cccc(-c2nc(CN3CCCCC3Cn3cncn3)co2)c1 (centres unmarked),10.11
CC(Cn1ccnc1)NCc1csc2c1CCCC2 (centres unmarked),13.7
Cc1cccc(OCCC(=O)N(C)CC(C)C#N)c1C (centres unmarked),15.09
CC(C)Cn1cncc1CNC(=O)c1cccc(-n2cnnc2)c1,15.38
Cn1cccc1-c1cc(C(=O)N2CCCC2c2nccs2)[nH]n1 (centres unmarked),19.44
Cn1ccnc1-c1ccc(NCC2COc3ccccc3O2)nn1 (centres unmarked),6.25
O=C1CCC2(CCCN(c3ncc(Cl)cc3F)C2)CN1CC1CC1 (centres unmarked),20.83
O=C1CCC2(CCN(Cc3ncccn3)CC2)CN1CCCO,9.639
O=C(C1CCCC1)N1CCn2c(nnc2C2CCCNC2)C1 (centres unmarked),11.03
O=C(O)Cn1nc(-c2ccccc2F)ccc1=O,15.22
Cn1cc(N2CCC3(CCCN(C(=O)c4ccnn4C)C3)C2=O)cn1 (centres unmarked),-4.839
Cc1ccc(C(=O)N2CCC3(CC2)COC(COc2cccnc2)C3)o1 (centres unmarked),18.18
COc1c(C(=O)N2CCC(CSc3ccccc3)C2)c(C)nn1C (centres unmarked),19.18
Cc1nc(C2CCCN2CC(=O)NCCOc2ccccc2)no1 (centres unmarked),-0.8
CC(C)N(C)CCCNC(=O)c1cnn(C(C)C)c1C(F)(F)F,10
Cc1ccc(N2CCN(C3CCc4ccccc4C3)CC2)nn1 (centres unmarked),22.45
O=C(O)CCc1cc2n(n1)CCCN(C(=O)c1cc3ccccc3s1)C2,15.2
CCn1cc(C(=O)N2CCCN(c3cccnn3)CC2)c2ccccc21,6.612
Cn1nc(C(C)(C)C)cc1NC(=O)Cn1ccccc1=O,10.53
CC(C)C[C@H](NC(=O)Cc1csc(-c2cccc(Cl)c2)n1)C(=O)O,4.138
CN(C)c1ccc(C(CNS(=O)(=O)c2cccs2)N2CCCC2)cc1 (centres unmarked),17.98
O=C(CC1COCCN1)N1CCCN(C2Cc3ccccc3C2)CC1 (centres unmarked),22.67
CN(C(=O)c1ccc(Cl)c(S(C)(=O)=O)c1)c1ccccc1,9.402
CC(C)(C)C(=O)NCCC(=O)NS(=O)(=O)c1ccc2c(c1)OCCO2,19.23
Cc1cccc(-c2ncc(CNC(C)CO)cn2)c1 (centres unmarked),10
COCC(=O)N1CCOC2(CCCN(c3cnccn3)C2)C1 (centres unmarked),10.53
CC(C)NC(=O)C1CN(C(=O)c2ccc(F)cc2)CC12CCOCC2 (centres unmarked),-13.59
Cc1ccc2c(n1)N(CCN(C)C)CCN(C(=O)c1ccco1)C2,21
CC(C)c1ncc2c(n1)CN(Cc1cccc(C#N)c1)CC2,13.6
Cc1ncncc1C(=O)N1CCOC(c2nc(C(C)C)n[nH]2)C1 (centres unmarked),11.4
O=C(c1cccnc1)N1CCC2(CC1)CCN(Cc1ccccn1)C2=O,-2.655
O=C(c1cccs1)N1CCOCC2(C1)CN(c1ccccc1)C(=O)CO2 (centres unmarked),4.167
Cc1nc2n(n1)CC(NCc1ccc(Cl)c3cccnc13)CC2 (centres unmarked),-31.86
Cc1cc(=O)n2ncnc2n1CC(O)c1ccc(F)cc1F (centres unmarked),14.4
COCCCN(Cc1cc(O)nc2ccccc12)C(=O)NC(C)C,14.29
CN(Cc1ccccc1F)C(=O)c1ccoc1,0
CC(=O)N1CCC(c2cc3c(ncn3C)c(-c3cnn(C)c3)n2)CC1,13.68
COc1ccc(C2CC(=O)Nc3c2nc2n3CCCC2)cc1O (centres unmarked),22.86
CCc1noc(CN(C)CCC(=O)Nc2ccc(C#N)c(Cl)c2)n1,17.24
CNc1nc(CNC(=O)Nc2ccc(OC)cc2C)cs1,9.333
Cc1occc1C(=O)NCCOc1ccc(C(F)(F)F)cn1,23.53
NC(=O)c1csc(N2CCCC(c3n[nH]c(=O)n3-c3ccccc3)C2)n1 (centres unmarked),9.917
CS(=O)(=O)NCc1cc2n(n1)CCCN(Cc1cc3ccccc3o1)C2,22.22
CC(C)c1cc(Br)ccc1NC(=O)NC(C)(CO)CO,15.71
CSCC(=O)Nc1cccc(Oc2ccccn2)c1,13.39
Cc1cccc(OCCC(=O)NC(C)c2nnc3n2CCC3)c1 (centres unmarked),9.649
COc1cc2nc(NCCN3CCNC3=O)cc(C)c2cc1OC,13.11
COC(=O)c1ccc(Cl)c(NS(=O)(=O)c2cn(C)cn2)c1,19.44
CCN(CC1CCCN(CCc2cccc(OC)c2)C1)C(=O)CCSC (centres unmarked),4.286
CC1CN(C)CCN1Cc1cccc(C(=O)N(C)C)c1 (centres unmarked),8.621
CC(C)Nc1ncnc2c1CCNCC2,17.54
C=Cn1cc(CN2CCC(c3ncc(Cl)cc3S(C)(=O)=O)CC2)c(C)n1,5.594
Cc1c(Cl)c(C(=O)NCc2ccc(F)cc2)nn1C,17.24
CC(C)n1cc(N2CC(C(=O)N3CCC(C(N)=O)CC3)CC2=O)cn1 (centres unmarked),19.54
COCCN1CCCn2cnc(CNC(=O)N(C)C)c2C1,9.402
c1cnc(N2CCCC3(CCN(c4ncccn4)C3)C2)nc1 (centres unmarked),-1.064

The last 7 entries again:

compound,Percent Effect
CC1CN(C)CCN1Cc1cccc(C(=O)N(C)C)c1 (centres unmarked),8.621
CC(C)Nc1ncnc2c1CCNCC2,17.54
C=Cn1cc(CN2CCC(c3ncc(Cl)cc3S(C)(=O)=O)CC2)c(C)n1,5.594
Cc1c(Cl)c(C(=O)NCc2ccc(F)cc2)nn1C,17.24
CC(C)n1cc(N2CC(C(=O)N3CCC(C(N)=O)CC3)CC2=O)cn1 (centres unmarked),19.54
COCCN1CCCn2cnc(CNC(=O)N(C)C)c2C1,9.402
c1cnc(N2CCCC3(CCN(c4ncccn4)C3)C2)nc1 (centres unmarked),-1.064